Experimental data: PubChem BioAssay AID1259405 (NCATS, 2018)
Purpose: 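Knock-downs that lift recombinant protein yield in hamster ovary cells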 (primary screen). System: Chinese hamster CHO-K1 ovary cells with stable secreted eGFP expression. Reagents: single siRNA against mouse genes, 0.8 pmol siRNA per well (2 µl of 400 nM stock). Time to read-out: 3 days. Measurement: 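Per-well intracellular GFP measured by laser scanning cytometry, plus viability from ATP luminescence, each relative to plate median of non-targeting control wells, in %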. Scale: GFP, % of control: higher = more GFP per well, higher productivity; viability (ATP), % of control: higher = more viable cells (more ATP). Call rule: 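a knock-down is called active if GFP reaches 120% or more of non-targeting control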.
Shown is an unselected part of about 50,000 reagents tested. About 4,000 of them (8%) were called active. 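Mouse siRNA library applied to hamster cells; one well for each siRNA.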 A number with no mark means an inactive call. The numbers tell different reagents against one gene apart.

| gene | siRNA no. | GFP, % of control | viability (ATP), % of control |
| --- | --- | --- | --- |
| Skint4 | 1 | 60 | 59 |
| Skint4 | 2 | 47.4 | 40.7 |
| Skint4 | 3 | 91.4 | 96.5 |
| Pik3c2a | 1 | 76.3 | 71.5 |
| Stx12 | 1 | 72.1 | 67.4 |
| Stx12 | 2 | 43.8 | 45.4 |
| Stx12 | 3 | 95.4 | 58.8 |
| Krt33a | 1 | 66.2 | 83.6 |
| Krt33a | 2 | 81.6 | 67.9 |
| Hcrtr2 | 1 | 43.1 | 47.8 |
| Hcrtr2 | 2 | 73.2 | 69.3 |
| Hcrtr2 | 3 | 46.2 | 60.5 |
| Pomc | 1 | 40 | 59.9 |
| Pomc | 2 | 52.7 | 109 |
| Pomc | 3 | 47.1 | 53.7 |
| Cfap95 | 1 | 74.3 | 87.2 |
| Cfap95 | 2 | 78.4 | 87 |
| Cfap95 | 3 | 42.7 | 71.1 |
| Gpatch2l | 1 | 78.6 | 75.7 |
| Gpatch2l | 2 | 63.8 | 58.2 |
| Gpatch2l | 3 | 114 | 96 |
| Kcne1 | 1 | 66.3 | 76 |
| Kcne1 | 2 | 76.3 | 78.1 |
| Kcne1 | 3 | 125 (active) | 75.4 |
| Shbg | 1 | 108 | 91.2 |
| Shbg | 2 | 132 (active) | 128 |
| Shbg | 3 | 133 (active) | 154 |
| Msh6 | 1 | 70.8 | 95.1 |
| Msh6 | 2 | 118 | 89.9 |
| Msh6 | 3 | 93.4 | 60.8 |
| Nceh1 | 1 | 89.4 | 84.9 |
| Nceh1 | 2 | 103 | 57.5 |
| Nceh1 | 3 | 45.9 | 51.2 |
| Or14c43 | 1 | 81.3 | 50.4 |
| Or14c43 | 2 | 46.4 | 30.8 |
| Or14c43 | 3 | 56.6 | 70.6 |
| Pcdha6 | 1 | 94.1 | 61.9 |
| Pcdha6 | 2 | 37 | 23.5 |
| Pcdha6 | 3 | 106 | 46.6 |
| Lrr1 | 1 | 75.5 | 80 |
| Lrr1 | 2 | 63.8 | 83.5 |
| Nt5e | 1 | 122 (active) | 124 |
| Nt5e | 2 | 66.5 | 67.6 |
| Nt5e | 3 | 82.6 | 93.9 |
| Areg | 1 | 134 (active) | 101 |
| Areg | 2 | 51.6 | 62.4 |
| Cftr | 1 | 104 | 94.1 |
| Cftr | 2 | 72.2 | 70.8 |
| Cftr | 3 | 53.2 | 77.2 |
| Or1e19 | 1 | 117 | 83.3 |
| Or1e19 | 2 | 93.1 | 83.5 |
| Or1e19 | 3 | 104 | 103 |
| Cers1 | 1 | 43.2 | 54.3 |
| Cers1 | 2 | 61.8 | 57.5 |
| Cers1 | 3 | 97.4 | 139 |
| Prpf6 | 1 | 70.5 | 68.6 |
| Prpf6 | 2 | 85.2 | 67.8 |
| Prpf6 | 3 | 92.2 | 76.1 |
| Yaf2 | 1 | 96 | 35.1 |
| Yaf2 | 2 | 107 | 89.9 |
| Yaf2 | 3 | 85.2 | 107 |
| Atpaf1 | 1 | 153 (active) | 74.9 |
| Atpaf1 | 2 | 78.2 | 75.3 |
| Atpaf1 | 3 | 56.4 | 64.9 |
| Mtmr10 | 1 | 63.4 | 58.8 |
| Mtmr10 | 2 | 123 (active) | 46.2 |
| Mtmr10 | 3 | 78.6 | 105 |
| Lxn | 1 | 77.3 | 72.8 |
| Lxn | 2 | 106 | 96.4 |
| Lxn | 3 | 136 (active) | 151 |
| Paqr3 | 1 | 223 (active) | 97.6 |
| Paqr3 | 2 | 88.5 | 63.1 |
| Paqr3 | 3 | 25.3 | 82.1 |
| Gtpbp2 | 1 | 129 (active) | 106 |
| Gtpbp2 | 2 | 67.2 | 85.7 |
| Gtpbp2 | 3 | 69.1 | 44.4 |
| A430072C10Rik | 1 | 73.3 | 64.4 |
| A430072C10Rik | 2 | 104 | 61.6 |
| A430072C10Rik | 3 | 67.2 | 77.8 |
| Allc | 1 | 65.8 | 23.9 |
| Allc | 2 | 89 | 90.6 |
| Allc | 3 | 43.5 | 42.6 |
| Crat | 1 | 168 (active) | 87.5 |
| Crat | 2 | 149 (active) | 102 |
| Crat | 3 | 120 | 96.7 |

Reformatted: entries from further up.
gene | siRNA no. | GFP, % of control | viability (ATP), % of control
A430072C10Rik | 2 | 104 | 61.6
A430072C10Rik | 3 | 67.2 | 77.8
Allc | 1 | 65.8 | 23.9
Allc | 2 | 89 | 90.6
